Measured values taken from paper PMC6320799.
These are yes or no findings as the source states them, for the method shown. In cells and extracts the contact can be indirect. Some binding calls cover weakened binding; strength is not graded here. Where a sequence is shown, tags or fusion partners need not be part of it.

Target: bZIP63 transcription factor (split-YFP fusions, positive control) (UniProt B9DGI8)
Test: split reporter; BiFC with NYFP and CYFP fusions (pSPYNE-35S, pSPYCE-35S) co-infiltrated by Agrobacterium into N. benthamiana leaves with TBSV p19. Confocal microscopy of epidermal cells at 3 to 4 dpi.

B1: bZIP63 transcription factor (split-YFP fusions, positive control) (protein, UniProt B9DGI8 1-314)
chain: MEKVFSDEEISGNHHWSVNGMTSLNRSASEWAFNRFIQESSAAADDGESTTACGVSVSSPPNVPVDSEEYRAFLKSKLNLACAAVAMKRGTFIKPQDTSGRSDNGGANESEQASLASSKATPMMSSAITSGSELSGDEEEADGETNMNPTNVKRVKRMLSNRESARRSRRRKQAHLSELETQVSQLRVENSKLMKGLTDVTQTFNDASVENRVLKANIETLRAKVKMAEETVKRLTGFNPMFHNMPQIVSTVSLPSETSNSPDTTSSQVTTPEIISSGNKGKALIGCKMNRTASMRRVESLEHLQKRIRSVGDQ
binding: binds
